The values that follow come from paper PMC7404097.

Protein sequences, listed by entry. Tags and fused reporters are not part of them.
UniProt P30874: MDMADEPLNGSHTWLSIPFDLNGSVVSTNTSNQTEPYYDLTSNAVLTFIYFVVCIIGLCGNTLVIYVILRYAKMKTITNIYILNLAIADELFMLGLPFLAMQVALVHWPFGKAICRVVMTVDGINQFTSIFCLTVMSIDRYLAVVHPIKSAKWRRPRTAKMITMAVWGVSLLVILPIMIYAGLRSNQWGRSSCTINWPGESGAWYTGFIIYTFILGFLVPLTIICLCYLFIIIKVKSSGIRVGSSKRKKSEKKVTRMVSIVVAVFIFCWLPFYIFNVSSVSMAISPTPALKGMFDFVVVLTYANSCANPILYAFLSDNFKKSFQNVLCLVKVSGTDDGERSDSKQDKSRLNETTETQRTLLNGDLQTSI
UniProt P30550: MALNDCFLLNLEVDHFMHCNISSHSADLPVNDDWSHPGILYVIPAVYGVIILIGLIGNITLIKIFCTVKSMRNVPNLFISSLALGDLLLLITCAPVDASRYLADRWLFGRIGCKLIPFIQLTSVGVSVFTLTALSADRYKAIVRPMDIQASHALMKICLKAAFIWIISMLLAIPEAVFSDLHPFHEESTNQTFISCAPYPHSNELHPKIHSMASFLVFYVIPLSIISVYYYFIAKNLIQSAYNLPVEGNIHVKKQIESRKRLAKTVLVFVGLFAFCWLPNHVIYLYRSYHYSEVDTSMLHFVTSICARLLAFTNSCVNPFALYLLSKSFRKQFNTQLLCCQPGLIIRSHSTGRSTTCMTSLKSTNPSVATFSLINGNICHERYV
UniProt P08100: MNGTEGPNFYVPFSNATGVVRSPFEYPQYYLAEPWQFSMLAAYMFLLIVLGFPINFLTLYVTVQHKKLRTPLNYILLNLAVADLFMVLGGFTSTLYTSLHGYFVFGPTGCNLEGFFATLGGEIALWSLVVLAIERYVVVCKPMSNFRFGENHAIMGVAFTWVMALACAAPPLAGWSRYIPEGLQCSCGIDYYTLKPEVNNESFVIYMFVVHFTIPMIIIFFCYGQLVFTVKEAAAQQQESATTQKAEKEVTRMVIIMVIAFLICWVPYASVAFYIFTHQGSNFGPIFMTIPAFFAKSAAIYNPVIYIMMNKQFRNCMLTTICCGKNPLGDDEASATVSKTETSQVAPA
UniProt P10523: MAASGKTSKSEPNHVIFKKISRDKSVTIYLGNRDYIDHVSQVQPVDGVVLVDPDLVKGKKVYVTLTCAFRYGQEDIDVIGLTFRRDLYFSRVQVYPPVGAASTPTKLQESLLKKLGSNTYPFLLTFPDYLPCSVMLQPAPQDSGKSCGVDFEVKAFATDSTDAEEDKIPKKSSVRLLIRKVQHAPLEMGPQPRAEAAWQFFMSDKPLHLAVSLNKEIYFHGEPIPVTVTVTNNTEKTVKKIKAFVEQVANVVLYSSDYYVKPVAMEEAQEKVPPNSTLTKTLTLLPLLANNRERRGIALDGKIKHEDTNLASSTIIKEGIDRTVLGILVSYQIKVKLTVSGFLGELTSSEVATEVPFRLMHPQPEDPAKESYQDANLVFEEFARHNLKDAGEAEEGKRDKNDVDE
UniProt P49407: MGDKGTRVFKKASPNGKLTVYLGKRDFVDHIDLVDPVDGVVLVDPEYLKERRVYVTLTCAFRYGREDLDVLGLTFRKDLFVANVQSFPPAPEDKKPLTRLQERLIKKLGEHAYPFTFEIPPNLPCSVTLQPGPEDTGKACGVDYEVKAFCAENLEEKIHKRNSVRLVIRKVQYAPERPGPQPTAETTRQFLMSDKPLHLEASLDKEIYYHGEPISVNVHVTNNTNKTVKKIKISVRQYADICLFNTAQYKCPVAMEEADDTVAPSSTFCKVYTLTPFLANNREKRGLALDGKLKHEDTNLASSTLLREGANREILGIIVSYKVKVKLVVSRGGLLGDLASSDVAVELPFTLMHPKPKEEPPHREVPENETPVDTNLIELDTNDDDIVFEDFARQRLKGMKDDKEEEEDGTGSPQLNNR

Test [1] concerns the target SSTR2-11S (somatostatin receptor type 2 with the large NanoLuc subunit 11S at its C-terminus) (UniProt P30874). Briefly: split reporter; direct assay, baseline luminescence before agonist (inactive receptor); gene dose experiment, Job plot of baseline against the fraction of receptor plasmid; live HEK293 cells.
For test [2], the target named is GRPR-11S (gastrin-releasing peptide receptor with the large NanoLuc subunit 11S at its C-terminus) (UniProt P30550). Described as above.
Test [3] deals with SSTR2-11S (somatostatin receptor type 2 with the large NanoLuc subunit 11S at its C-terminus) (UniProt P30874). In words: split reporter; direct assay: GPCR-11S and 114-arrestin co-expressed in live HEK293 cells (transient transfection, MultiPrime plasmid or baculovirus); 10 min baseline, then 1 µM agonist (isoproterenol, DOTA-TOC, AMBA) or 485 nm light for rhodopsin; furimazine luminescence over time.

Test [4] has as its target human rhodopsin with the large NanoLuc subunit 11S at its C-terminus (human) (UniProt P08100). The test is described as above.
For test [5], the target named is GRPR-11S (gastrin-releasing peptide receptor with the large NanoLuc subunit 11S at its C-terminus) (UniProt P30550). The test is described as above.
For test [6], the target named is B2AR-11S (β2-adrenergic receptor with the large NanoLuc subunit 11S at its C-terminus) (UniProt P07550). The description is as above.

Results are given in words; binding and its absence hold for the method and conditions named. Binding seen in cells or lysates may run through a third protein. Some entries that bind do so weakly or less than the wild type.

For the substance “114-β-arrestin-2 (β-arrestin-2 with the small NanoLuc subunit 114 at its N-terminus) (from UniProt P32121 1-409)”, the binding entry is on record as “binds weakly” in test [1]; “binds weakly” in test [2]; “binds” in test [3]; “binds” in test [4]; “binds” in test [5].

Take “114-S-arrestin (S-arrestin with the small NanoLuc subunit 114 at its N-terminus) (from UniProt P10523 1-405)”: the binding result in test [3], in test [4], in test [5] and in test [6] was “binds” throughout.

For “114-β-arrestin-1 (β-arrestin-1 with the small NanoLuc subunit 114 at its N-terminus) (from UniProt P49407 1-418)”, the binding entry in test [3], in test [4] and in test [5] was “binds” throughout.
